# PMC10653872
# The chains behind the UniProt entries cited, without tags or fusion partners.
# UniProt P06428: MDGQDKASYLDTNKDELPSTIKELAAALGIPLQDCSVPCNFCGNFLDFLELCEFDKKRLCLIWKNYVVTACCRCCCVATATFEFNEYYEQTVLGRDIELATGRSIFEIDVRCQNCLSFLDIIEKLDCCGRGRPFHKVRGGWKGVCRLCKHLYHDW
# UniProt Q92585: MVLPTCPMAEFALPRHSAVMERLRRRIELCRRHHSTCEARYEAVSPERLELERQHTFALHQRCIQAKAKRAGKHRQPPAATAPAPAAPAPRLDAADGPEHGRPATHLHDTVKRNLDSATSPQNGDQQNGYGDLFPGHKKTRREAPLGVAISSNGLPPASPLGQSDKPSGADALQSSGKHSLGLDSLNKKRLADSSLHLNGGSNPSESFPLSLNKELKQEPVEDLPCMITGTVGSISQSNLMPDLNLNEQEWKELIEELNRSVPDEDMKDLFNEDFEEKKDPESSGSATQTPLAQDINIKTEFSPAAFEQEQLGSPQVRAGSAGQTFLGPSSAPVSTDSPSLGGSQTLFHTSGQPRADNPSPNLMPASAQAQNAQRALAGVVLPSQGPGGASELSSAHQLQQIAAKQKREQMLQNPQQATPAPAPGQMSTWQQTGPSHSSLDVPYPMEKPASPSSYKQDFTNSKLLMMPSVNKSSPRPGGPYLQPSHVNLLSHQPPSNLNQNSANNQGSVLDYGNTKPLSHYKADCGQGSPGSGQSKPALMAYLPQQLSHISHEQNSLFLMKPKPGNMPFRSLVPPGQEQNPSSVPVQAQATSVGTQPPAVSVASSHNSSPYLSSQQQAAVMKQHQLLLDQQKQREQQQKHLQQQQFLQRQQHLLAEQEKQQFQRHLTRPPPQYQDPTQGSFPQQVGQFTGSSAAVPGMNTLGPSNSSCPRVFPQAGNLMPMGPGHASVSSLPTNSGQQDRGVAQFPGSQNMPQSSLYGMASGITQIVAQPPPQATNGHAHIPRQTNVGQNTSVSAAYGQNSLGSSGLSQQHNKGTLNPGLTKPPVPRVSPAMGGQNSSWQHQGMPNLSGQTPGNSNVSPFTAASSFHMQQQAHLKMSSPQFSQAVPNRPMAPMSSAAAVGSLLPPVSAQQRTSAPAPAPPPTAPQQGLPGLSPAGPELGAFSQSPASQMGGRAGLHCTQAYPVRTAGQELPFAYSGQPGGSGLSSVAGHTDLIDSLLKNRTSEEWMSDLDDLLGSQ
# Where two headings read alike, the source gives them in different places. These are yes or no findings as the source states them, for the method shown. Binding seen in cells or lysates may run through a third protein. Some results given as binding are weak or reduced against the parent protein; the word gives no strength.
# B1: B-cell CLL/lymphoma 9-like (BCL9L) (protein, UniProt Q86UU0 1-1499)
# chain: MRILANKTRLPHPRRREAPGSPPLSPRGHCPPAPAKPMHPENKLTNHGKTGNGGAQSQHQNVNQGPTCNVGSKGVGAGNHGAKANQISPSNSSLKNPQAGVPPFSSLKGKVKRDRSVSVDSGEQREAGTPSLDSEAKEVAPRSKRRCVLERKQPYSGDEWCSGPDSEEDDKPIGATHNCNVADPAMAAPQLGPGQTTQLPLSESSVPGAPHGPPPGLRPDAPGGGGGGGGVPGKPPSQFVYVFTTHLANTAAEAVLQGRADSILAYHQQNVPRAKLDQAPKVPPTPEPLPLSTPSAGTPQSQPPPLPPPPPPAPGSAPPALPPEGPPEDSSQDLAPNSVGAASTGGGTGGTHPNTPTATTANNPLPPGGDPSSAPGPALLGEAAAPGNGQRSLVGSEGLSKEQLEHRERSLQTLRDIERLLLRSGETEPFLKGPPGGAGEGGPPAQAPPPPQQPPTAPPSGLKKYEEPLQSMISQTQSLGGPPLEHEVPGHPPGGDMGQQMNMMIQRLGQDSLTPEQVAWRKLQEEYYEEKRRKEEQIGLHGSRPLQDMMGMGGMMVRGPPPPYHSKPGDQWPPGMGAQLRGPMDVQDPMQLRGGPPFPGPRFPGNQIQRVPGFGGMQSMPMEVPMNAMQRPVRPGMGWTEDLPPMGGPSNFAQNTMPYPGGQGEAERFMTPRVREELLRHQLLEKRSMGMQRPLGMAGSGMGQSMEMERMMQAHRQMDPAMFPGQMAGGEGLAGTPMGMEFGGGRGLLSPPMGQSGLREVDPPMGPGNLNMNMNVNMNMNMNLNVQMTPQQQMLMSQKMRGPGDLMGPQGLSPEEMARVRAQNSSGVMGGPQKMLMPSQFPNQGQQGFSGGQGPYQAMSQDMGNTQDMFSPDQSSMPMSNVGTTRLSHMPLPPASNPPGTVHSAPNRGLGRRPSDLTISINQMGSPGMGHLKSPTLSQVHSPLVTSPSANLKSPQTPSQMVPLPSANPPGPLKSPQVLGSSLSVRSPTGSPSRLKSPSMAVPSPGWVASPKTAMPSPGVSQNKQPPLNMNSSTTLSNMEQGTLPPSGPRSSSSAPPANPPSGLMNPSLPFTSSPDPTPSQNPLSLMMTQMSKYAMPSSTPLYHNAIKTIATSDDELLPDRPLLPPPPPPQGSGPGISNSQPSQMHLNSAAAQSPMGMNLPGQQPLSHEPPPAMLPSPTPLGSNIPLHPNAQGTGGPPQNSMMMAPGGPDSLNAPCGPVPSSSQMMPFPPRLQQPHGAMAPTGGGGGGPGLQQHYPSGMALPPEDLPNQPPGPMPPQQHLMGKAMAGRMGDAYPPGVLPGVASVLNDPELSEVIRPTPTGIPEFDLSRIIPSEKPSSTLQYFPKSENQPPKAQPPNLHLMNLQNMMAEQTPSRPPNLPGQQGVQRGLNMSMCHPGQMSLLGRTGVPPQQGMVPHGLHQGVMSPPQGLMTQQNFMLMKQRGVGGEVYSQPPHMLSPQGSLMGPPPQQNLMVSHPLRQRSVSLDSQMGYLPAPGGMANLPF
# What was measured:
# [1] = molecular target: N-terminally FLAG/HA-tagged HPV8 E6 (HPV8 (human papillomavirus type 8)) (UniProt P06428); assay: co-IP; FLAG immunoprecipitation (Anti-FLAG M2 Affinity Gel) from extracts of transiently transfected HCT116 cells; EBC buffer (50 mM Tris HCl pH 8.0, 150 mM NaCl, 0.5% NP40, 0.5 mM EDTA); western blot
# [2] = molecular target: N-terminally FLAG/HA-tagged HPV8 E6, stably expressed in NOKs (HPV8 (human papillomavirus type 8)) (UniProt P06428); assay: co-IP; FLAG immunoprecipitation (Anti-FLAG M2 Affinity Gel) from extracts of NOKs with stable expression of HPV8 E6; EBC buffer; western blot
# [3] = molecular target: N-terminally FLAG/HA-tagged HPV8 E6 (HPV8 (human papillomavirus type 8)) (UniProt P06428); assay: co-IP; FLAG immunoprecipitation (Anti-FLAG M2 Affinity Gel) from extracts of transiently transfected HCT116 cells; EBC buffer (50 mM Tris HCl pH 8.0, 150 mM NaCl, 0.5% NP40, 0.5 mM EDTA); western blot; remark: listed apart in the source
# [4] = molecular target: N-terminally FLAG/HA-tagged HPV8 E6, stably expressed in iHFKs (HPV8 (human papillomavirus type 8)) (UniProt P06428); assay: co-IP; FLAG immunoprecipitation (Anti-FLAG M2 Affinity Gel) from extracts of iHFKs with stable expression of HPV8 E6, untreated or treated with the Wnt activator CHIR99021; EBC buffer; western blot
Molecule,binding [1],binding [2],binding [3],binding [4]
Mastermind Like Transcriptional Coactivator 1 (MAML1) (from UniProt Q92585 1-1016),binds,binds,–,–
B1,–,–,binds,binds
